This test has as its system L1210 leukemia ip in BDF1 mice, survival T/C. Nature of the test: NCI In Vivo Anticancer Drug Screen. Data for tumor model L1210 Leukemia (intraperitoneal) in B6D2F1 (BDF1) mice. Particulars: T/C endpoint: mean survival time, higher T/C = longer survival.
The mark [1] stands for this setting: dose: 320.0 mg/kg/injection, schedule: Q01DX Z (ip), vehicle: saline.
The mark [2] stands for this setting: dose: 500.0 mg/kg/injection, schedule: Q01DX Z (ip), vehicle: carboxymethylcellulose (CMC).
[3] abbreviates: dose: 100.0 mg/kg/injection, schedule: Q04DX003 (ip), vehicle: Klucel (hydroxypropylcellulose) (HPC).

SMILES strings stand for the structures. The list does not hold the whole screen: it is rich in T/C values a quarter to a half above the control, in often repeated tests (any T/C) and in doses without a T/C. Further doses and runs are listed elsewhere. T/C gives the treated animals as a percentage of the vehicle group. Some entries give survivors of the animals treated and no T/C: the source holds a T/C of zero for them, seemingly a mark for toxic or unscored doses. Some doses without a T/C left all or most animals alive at the check, yet need not have been tolerated: the source hardly ever lists a survival T/C far under the control, and the zero likely stands for such cases as well. Counts of survivors are from the toxicity check (mostly the fifth day) where no day follows; animals may have died later. Schedules are NCI's codes, read here as Q, the interval in days (D) or hours (H), X, the number of doses. Some schedule codes hold Z or #, which are not explained here. Some doses were run more than once; the values are given in rising order. Where survival is the endpoint, this PubChem deposit counts one and a half times the control or more as active, and values a quarter to a half above the control carry no call in these data; other NCI protocols may use other cut-offs. Some T/C values are followed by the survivors on the day toxicity was checked, most often the fifth; where none is given, no animal had died by that day.

Data on 8 compounds can be found in PubChem BioAssay AID248 (DTP/NCI, 2004).

In the case of `CC(C)NCC(=O)c1ccc(O)c(O)c1`, the survivor count (dose: 10.0 mg/kg/injection, schedule: Q#A X Z (ip), vehicle: methylcellulose (MC)) is 1 of 6; the survivor count (dose: 20.0 mg/kg/injection, schedule: Q01DX Z (ip), vehicle: saline) is 6 of 6; the survivor count (dose: 40.0 mg/kg/injection, schedule: Q#A X Z (ip), vehicle: methylcellulose (MC)) is on record as 2 of 6; the survivor count (dose: 60.0 mg/kg/injection, schedule: Q03DX Z (ip), vehicle: methylcellulose (MC)) is reported as 3 of 6; the survivor count (dose: 80.0 mg/kg/injection, schedule: Q#A X Z (ip), vehicle: methylcellulose (MC)) is recorded as 2 of 6; the survivor count (dose: 140.0 mg/kg/injection, schedule: Q07DX Z (ip), vehicle: methylcellulose (MC)) is 1 of 6. The survivor count is listed as 2 of 6 (dose: 160.0 mg/kg/injection, schedule: Q#A X Z (ip), vehicle: methylcellulose (MC)); 2 of 6 (dose: 280.0 mg/kg/injection, schedule: Q07DX Z (ip), vehicle: methylcellulose (MC)); 10 of 10 (dose: 288.0 mg/kg/injection, schedule: Q04DX003 (ip), vehicle: saline); 0 of 6 under setting [1]; 0 of 6 (dose: 320.0 mg/kg/injection, schedule: Q#A X Z (ip), vehicle: methylcellulose (MC)); 6 of 10 (dose: 430.0 mg/kg/injection, schedule: Q01DX001 (ip), vehicle: saline). Moreover, the survivor count (dose: 478.0 mg/kg/injection, schedule: Q03HX024 (ip), vehicle: saline) is reported as 1 of 10; the survivor count under setting [2] is given as 0 of 6; the survivor count (dose: 560.0 mg/kg/injection, schedule: Q07DX Z (ip), vehicle: methylcellulose (MC)) is given as 2 of 6; the survivor count (dose: 642.0 mg/kg/injection, schedule: Q01DX001 (ip), vehicle: saline) is given as 0 of 10; the survivor count (dose: 642.0 mg/kg/injection, schedule: Q04DX003 (ip), vehicle: saline) is reported as 0 of 10; the survivor count (dose: 717.0 mg/kg/injection, schedule: Q01DX009 (ip), vehicle: saline) was 0 of 10. For the same compound, the survivor count runs as follows: (dose: 717.0 mg/kg/injection, schedule: Q03HX024 (ip), vehicle: saline) 0 of 10; (dose: 958.0 mg/kg/injection, schedule: Q01DX001 (ip), vehicle: saline) 0 of 10; (dose: 958.0 mg/kg/injection, schedule: Q04DX003 (ip), vehicle: saline) 0 of 10; (dose: 960.0 mg/kg/injection, schedule: Q03DX Z (ip), vehicle: methylcellulose (MC)) 0 of 6; (dose: 1000.0 mg/kg/injection, schedule: Q01DX Z (ip), vehicle: carboxymethylcellulose (CMC)) 0 of 6; (dose: 1120.0 mg/kg/injection, schedule: Q07DX Z (ip), vehicle: methylcellulose (MC)) 0 of 6. In addition, the survivor count was 0 of 10 (dose: 1430.0 mg/kg/injection, schedule: Q01DX001 (ip), vehicle: saline); 0 of 10 (dose: 1430.0 mg/kg/injection, schedule: Q04DX003 (ip), vehicle: saline); 0 of 10 (dose: 2100.0 mg/kg/injection, schedule: Q01DX001 (ip), vehicle: saline); 0 of 10 (dose: 2100.0 mg/kg/injection, schedule: Q04DX003 (ip), vehicle: saline); 0 of 10 (dose: 3200.0 mg/kg/injection, schedule: Q01DX001 (ip), vehicle: saline); 0 of 10 (dose: 3200.0 mg/kg/injection, schedule: Q04DX003 (ip), vehicle: saline). For the same compound, the survivor count is listed as 0 of 10 (dose: 4780.0 mg/kg/injection, schedule: Q01DX001 (ip), vehicle: saline); 0 of 10 (dose: 4780.0 mg/kg/injection, schedule: Q04DX003 (ip), vehicle: saline); 0 of 10 (dose: 7170.0 mg/kg/injection, schedule: Q01DX001 (ip), vehicle: saline); 0 of 10 (dose: 7170.0 mg/kg/injection, schedule: Q04DX003 (ip), vehicle: saline). In addition, the T/C (dose: 74.0 mg/kg/injection, schedule: Q01DX Z (ip), vehicle: saline) is 130 % of control; the T/C (dose: 111.0 mg/kg/injection, schedule: Q01DX Z (ip), vehicle: saline) was 136 % of control; the T/C (dose: 166.0 mg/kg/injection, schedule: Q01DX Z (ip), vehicle: saline) is 131 % of control; the T/C (dose: 200.0 mg/kg/injection, schedule: Q01DX Z (ip), vehicle: carboxymethylcellulose (CMC)) is 125 % of control; the T/C (dose: 250.0 mg/kg/injection, schedule: Q01DX Z (ip), vehicle: carboxymethylcellulose (CMC)) is 127 % of control; the T/C (dose: 250.0 mg/kg/injection, schedule: Q01DX Z (ip), vehicle: saline) was 135 % of control. Moreover, under setting [1], the T/C was 131 % of control [5 of 6 alive].

Turning to `O=S(=O)(Cc1ccccc1)N1CCCCC1`, the survivor count (dose: 400.0 mg/kg/injection, schedule: Q04DX002 (ip), vehicle: Klucel (hydroxypropylcellulose) (HPC)) is reported as 2 of 3.

`Cc1cc(NC(=O)Nc2ccc(C3=NCCN3)cc2)ccc1NC(=O)Nc1ccc(C2=NCCN2)cc1`: the T/C is 131 % of control (dose: 125.0 mg/kg/injection, schedule: Q01DX Z (ip), vehicle: carboxymethylcellulose (CMC)) and 135 % of control under setting [2].

Turning to `C=CC[n+]1ccccc1C(c1ccccc1)c1ccccc1`, the survivor count (dose: 50.0 mg/kg/injection, schedule: Q04DX003 (ip), vehicle: saline with Tween-80) is 2 of 6; the survivor count (dose: 100.0 mg/kg/injection, schedule: Q04DX003 (ip), vehicle: saline with Tween-80) was 0 of 6; the survivor count (dose: 200.0 mg/kg/injection, schedule: Q04DX003 (ip), vehicle: saline with Tween-80) is given as 0 of 6; the survivor count (dose: 400.0 mg/kg/injection, schedule: Q04DX003 (ip), vehicle: saline with Tween-80) is 0 of 6.

Regarding `N#CCCO`, the T/C (dose: 200.0 mg/kg/injection, schedule: Q04DX002 (ip), vehicle: saline) was 125 % of control.

For `C=C(C)CNc1ccccc1`, under “dose: 400.0 mg/kg/injection, schedule: Q01DX009 (ip), vehicle: saline with Tween-80”, the survivor count is reported as 2 of 6.

For `COc1cc2c(cc1OC)C[N+]1(C)CCc3cc(OC)c(OC)cc3C1C2` (centres undefined), the survivor count is, setting by setting: (dose: 75.0 mg/kg/injection, schedule: Q01DX001 (ip), vehicle: saline) 0 of 6; (dose: 150.0 mg/kg/injection, schedule: Q01DX001 (ip), vehicle: saline) 0 of 6; (dose: 300.0 mg/kg/injection, schedule: Q01DX001 (ip), vehicle: saline) 0 of 6.

Turning to `CCOC(=O)NC1=C(N2CC2C)C(=O)C(NC(=O)OCC)=C(N2CC2C)C1=O` (centres undefined), the survivor count is, setting by setting: (dose: 15.0 mg/kg/injection, schedule: Q01DX009 (ip), vehicle: Klucel (hydroxypropylcellulose) (HPC)) 0 of 6; (dose: 30.0 mg/kg/injection, schedule: Q01DX009 (ip), vehicle: Klucel (hydroxypropylcellulose) (HPC)) 0 of 6 and 1 of 6; under setting [3], 0 of 6; (dose: 200.0 mg/kg/injection, schedule: Q04DX003 (ip), vehicle: Klucel (hydroxypropylcellulose) (HPC)) 2 of 6; (dose: 400.0 mg/kg/injection, schedule: Q04DX003 (ip), vehicle: Klucel (hydroxypropylcellulose) (HPC)) 0 of 6. For the same compound, the T/C under setting [3] was 129 % of control.
